For at least one compound, name, drawing or mass did not settle the structure.
Tests used:
Alternaria alternata = test: Zone of inhibition assay on TLC plates overlaid with agar containing fungal spores; type: cell-based; details: 1 μg/ml furanone in test solution, 10 μl spotted
Experimental: (§1) Fungi used: Alternaria alternata, Aureobasidium pullulans, Cladosporium cladosporioides, Penicillium digitatum Method: Base formulas for A, B, C and D were prepared as described in Table 1 below. Subsequently, test solutions were prepared either by: (1) taking a furanone or a base formula alone; or (2) by adding small amounts of suitably solubilized furanone (i.e., normally using ethanol) to a base formula so as to deliver a series of furanone concentrations in the test solutions (i.e., 10 ug/ml, 5 ug/ml, 1 ug/ml, 500 ng/ml, 100 ng/ml and 10 ng/ml). […] The various test solutions are set out at the left-hand margin of Tables 2A to 2D and can be described as follows: Once the test solutions were prepared, 10 μl of each test solution was spotted onto TLC plates. The plates were overlaid with agar containing fungal spores. The TLC plates were incubated in a high humidity environment until growth could be observed visually. At inhibitory furanone concentrations, a zone of inhibition where no fungal growth was observed formed above the test solution spot. Lower furanone concentrations resulting in a zone of inhibition correspond to higher test solution efficacy.

Penicillium digitatum = test: as above; type: cell-based; details: 5 μg/ml furanone in test solution, 10 μl spotted
Experimental: as §1

Q: What does the source list for O=C1C=C(Br)/C(=C/Br)O1 [Furanone 30]?
A: Zone of Inhibition with 1 μg/ml of Furanone (mm) (Alternaria alternata): 15-10; Zone of Inhibition with 5 μg/ml of Furanone (mm) (Penicillium digitatum): 32-30

— US20020111282A1, “Antimicrobial compositions containing quaternary ammonium compounds, silanes and other disinfectants with furanones” (priority 2000, published 2002)
